Some entries share one result that the patent states for a list of compounds.
Biological target: PI3Kα (Homo sapiens, UniProt P42336)
Assay: PI3K Biochemical Assays (ATP consumption, luciferase-luciferin chemiluminescence)
Settings: PI3Kα 1.5 nM, ATP 1 μM, PIP2 10 μM; percent of ATP consumed
Experimental: PI3Kα activity is measured as the percent of ATP consumed following the kinase reaction using luciferase-luciferin-coupled chemiluminescence. Reactions were conducted in 384-well white, medium binding microtiter plates (Greiner). Kinase reactions were initiated by combining test compounds, ATP, substrate (PIP2), and kinase in a 20 μL volume in a buffer solution. The standard PI3Kalpha assay buffer is composed 50 mM Tris, pH 7.5, 1 mM EGTA, 10 mM MgCl2, 1 mM DTT and 0.03% CHAPS. The standard assay concentrations for enzyme, ATP, and substrate are 1.5 nM, 1 μM, and 10 μM, respectively. The reaction mixture was incubated at ambient temperature for approximately 2 h. Following the kinase reaction, a 10 μL aliquot of luciferase-luciferin mix (Promega Kinase-Glo) was added and the chemiluminescence signal measured using a Victor2 plate reader (Perkin Elmer). Total ATP consumption was limited to 40-60% and IC50 values of control compounds correlate well with literature references. Substituting PI3Kα with PI3KIβ, […], or […], the inhibitory activity of the compounds for the other isoforms of I3K were measured.

Amino acid sequences for entries named in this document (tags omitted).
UniProt P42336, whole entry: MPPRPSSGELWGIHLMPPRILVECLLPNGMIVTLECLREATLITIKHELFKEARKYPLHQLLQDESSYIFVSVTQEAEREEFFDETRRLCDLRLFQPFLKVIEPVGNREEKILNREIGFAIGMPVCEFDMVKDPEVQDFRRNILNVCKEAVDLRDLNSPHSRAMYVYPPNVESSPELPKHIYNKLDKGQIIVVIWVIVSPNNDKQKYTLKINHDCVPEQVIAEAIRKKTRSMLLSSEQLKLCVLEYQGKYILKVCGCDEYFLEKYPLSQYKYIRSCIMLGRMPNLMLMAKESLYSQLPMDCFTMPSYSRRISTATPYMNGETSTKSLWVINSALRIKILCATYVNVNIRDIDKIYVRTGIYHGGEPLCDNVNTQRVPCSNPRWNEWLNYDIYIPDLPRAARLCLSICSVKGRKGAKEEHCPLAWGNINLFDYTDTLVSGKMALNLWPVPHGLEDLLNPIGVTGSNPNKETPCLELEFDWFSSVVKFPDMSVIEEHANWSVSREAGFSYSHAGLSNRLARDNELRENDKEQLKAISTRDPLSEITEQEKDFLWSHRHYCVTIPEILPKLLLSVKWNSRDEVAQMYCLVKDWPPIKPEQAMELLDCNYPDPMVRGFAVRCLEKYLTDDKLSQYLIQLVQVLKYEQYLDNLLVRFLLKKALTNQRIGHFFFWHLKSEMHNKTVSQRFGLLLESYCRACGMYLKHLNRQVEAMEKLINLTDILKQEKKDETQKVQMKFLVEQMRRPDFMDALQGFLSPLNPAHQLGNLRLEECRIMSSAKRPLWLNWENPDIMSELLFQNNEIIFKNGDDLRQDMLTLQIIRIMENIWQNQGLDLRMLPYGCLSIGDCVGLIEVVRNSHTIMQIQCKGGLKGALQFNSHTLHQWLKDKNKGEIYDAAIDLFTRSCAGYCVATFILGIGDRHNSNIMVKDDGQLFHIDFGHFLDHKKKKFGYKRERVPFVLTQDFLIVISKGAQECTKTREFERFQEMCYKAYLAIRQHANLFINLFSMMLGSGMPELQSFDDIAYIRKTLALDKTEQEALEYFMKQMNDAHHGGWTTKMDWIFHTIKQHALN

## Cc1nc2ccc(-c3ccc4c(c3)CN(C(=O)N3CCN(c5ccccc5Cl)CC3)CCO4)cc2[nH]1 [Compound 159, 4-{[4-(2-chlorophenyl)piperazin-1-yl]carbonyl}-7-(2-methyl-1H-benzimidazol-6-yl)-2,3,4,5-tetrahydro-1,4-benzoxazepine]
  IC50: not active

## COc1cccc(N2CCN(C(=O)N3CCOc4ccc(-c5ccc6nc(C)[nH]c6c5)cc4C3)CC2)c1 [Compound 160, 7-(2-methyl-1H-benzimidazol-6-yl)-4-({4-[3-(methyloxy)phenyl]piperazin-1-yl}carbonyl)-2,3,4,5-tetrahydro-1,4-benzoxazepine]
  IC50: not active

— patent US8637499B2, “Benzoxazepines as inhibitors of PI3K/mTOR and methods of their use and manufacture” (Exelixis, Inc., priority 2009, dated 2014)
